Data as given in PubChem BioAssay AID652243 (Drosophila RNAi Screening Center, 2013)

- Assay: 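Fly genes required for human androgen receptor driven transcription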 (primary screen)
- Cells: Drosophila S2R+ cells
- Reagent: long dsRNA against Drosophila genes
- Time to read-out: 72 h (48 h, then 24 h hormone)
- Conditions: synthetic androgen R1881 at 10 nM for 24 h
- Measured: 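Firefly light from an androgen-responsive reporter and Renilla control light per well, raw and unnormalised, for each of two replicates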
- Direction: firefly reporter light: higher = more light from androgen-responsive reporter; Renilla control light: higher = more constitutive control signal (cell number, transfection)
- Rule for the call: 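Hit when the log firefly-to-Renilla ratio dropped or increased by a fixed fold versus the mean of GFP or LacZ controls across duplicate plates; lowering cut given as 1.5 and as 3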
- Meaning of the calls: active = hit: reporter lowered or raised; inactive = no hit
The deposit covers about 24,000 reagents; below is an unselected part of those that have a named target and a result. In the full data, 246 (1%) are marked active. 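Plates not normalised; calls are printed but the firefly/Renilla ratio behind them is not deposited; fold cut for lowering reported inconsistently.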 Raw values are not corrected between plates. Names joined by + are all predicted targets of the reagent. The record does not give: the amount of reagent.

| target | dsRNA | firefly reporter light, replicate 1 | firefly reporter light, replicate 2 | Renilla control light, replicate 1 | Renilla control light, replicate 2 | activity call |
| --- | --- | --- | --- | --- | --- | --- |
| CG12502 | DRSC23247 | 1.18e6 | 1.18e6 | 1.71e6 | 1.77e6 | inactive |
| CG5065 | DRSC06912 | 77399 | 72102 | 1.64e6 | 1.64e6 | inactive |
| CG34126 | DRSC02726 | 1.93e5 | 1.68e5 | 2.29e6 | 1.32e6 | inactive |
| CG34126 | DRSC22079 | 7.79e5 | 9.13e5 | 3.90e5 | 3.14e5 | inactive |
| CG14200 | DRSC19555 | 9300 | 10318 | 42179 | 28453 | inactive |
| CG14200 | DRSC22979 | 4.52e5 | 4.99e5 | 1.26e6 | 1.05e6 | inactive |
| CG14200 | DRSC25784 | 3.15e5 | 2.76e5 | 7.60e5 | 7.52e5 | inactive |
| CG1137 | DRSC12529 | 46846 | 46073 | 9.82e5 | 7.17e5 | inactive |
| CG1137 | DRSC29434 | 4.14e5 | 4.36e5 | 1.22e6 | 1.22e6 | inactive |
| sr (stripe) | DRSC13284 | 2.46e5 | 1.89e5 | 3.54e5 | 3.36e5 | inactive |
| sr (stripe) | DRSC25793 | 2.62e5 | 2.73e5 | 6.32e5 | 4.56e5 | inactive |
| CG4806 | DRSC04491 | 2.11e5 | 2.37e5 | 1.15e6 | 1.55e6 | inactive |
| Non1 (Novel nucleolar protein 1) | DRSC05954 | 7.19e5 | 7.96e5 | 1.01e6 | 1.04e6 | inactive |
| Nsf2 (N-ethylmaleimide-sensitive factor 2) | DRSC22104 | 5.15e5 | 5.80e5 | 2.26e6 | 1.74e6 | inactive |
| Nsf2 (N-ethylmaleimide-sensitive factor 2) | DRSC27428 | 2.91e5 | 2.49e5 | 7.10e5 | 7.91e5 | inactive |
| CG3502 + CG9863 | DRSC04578 | 2.66e5 | 2.01e5 | 1.42e6 | 1.61e6 | inactive |
| CG15673 | DRSC04263 | 2.03e5 | 2.27e5 | 1.46e6 | 1.60e6 | inactive |
| CstF50 (Cleavage stimulation factor 50 kD subunit) | DRSC15434 | 52961 | 59229 | 4.44e5 | 4.52e5 | inactive |
| RpL13A (Ribosomal protein L13A) | DRSC12265 | 38070 | 45129 | 4.64e5 | 4.10e5 | inactive |
| RpL13A (Ribosomal protein L13A) | DRSC27297 | 3.05e5 | 2.43e5 | 3.84e5 | 3.99e5 | inactive |
| ytr (yantar) | DRSC04306 | 9.05e5 | 6.74e5 | 1.51e6 | 1.23e6 | inactive |
| ytr (yantar) | DRSC22073 | 8.56e5 | 8.95e5 | 1.18e6 | 9.84e5 | inactive |
| ytr (yantar) | DRSC25408 | 3.24e5 | 3.21e5 | 9.94e5 | 8.02e5 | inactive |
| CG46385 | DRSC06557 | 2.41e5 | 2.59e5 | 1.29e6 | 1.22e6 | inactive |
| CG46385 | DRSC25794 | 3.75e5 | 3.65e5 | 8.04e5 | 6.55e5 | inactive |
| CG15147 | DRSC02447 | 4.36e5 | 3.90e5 | 3.22e6 | 2.91e6 | inactive |
| CG15147 | DRSC02448 | 1.80e5 | 1.35e5 | 1.58e6 | 1.14e6 | inactive |
| CG15147 | DRSC27255 | 2.56e5 | 3.07e5 | 5.68e5 | 5.40e5 | inactive |
| CG14042 + SP555 | DRSC02367 | 35057 | 19892 | 3.11e5 | 2.55e5 | inactive |
| CG14042 + SP555 | DRSC03428 | 1.49e5 | 2.26e5 | 2.77e6 | 2.17e6 | inactive |
| CG1812 | DRSC20557 | 1.05e5 | 69594 | 7.97e5 | 6.64e5 | inactive |
| CG1812 | DRSC26769 | 3.57e5 | 3.28e5 | 5.53e5 | 6.01e5 | inactive |
| tud (tudor) | DRSC04719 | 1.89e5 | 2.00e5 | 1.37e6 | 1.59e6 | inactive |
| CG33095 | DRSC14441 | 1.65e5 | 1.12e5 | 2.00e6 | 1.22e6 | inactive |
| Ir56b (Ionotropic receptor 56b) | DRSC06543 | 72291 | 91720 | 9.47e5 | 1.06e6 | inactive |
| Ir56b (Ionotropic receptor 56b) | DRSC28758 | 6.23e5 | 4.57e5 | 1.33e6 | 1.46e6 | inactive |
| CCHa2-R (CCHamide-2 receptor) | DRSC04870 | 3.43e5 | 3.00e5 | 2.19e6 | 1.65e6 | inactive |
| CCHa2-R (CCHamide-2 receptor) | DRSC04871 | 2.66e5 | 3.31e5 | 2.45e6 | 2.44e6 | inactive |
| E2f1 (E2F transcription factor 1) | DRSC16655 | 2.57e5 | 2.09e5 | 2.70e6 | 2.53e6 | inactive |
| E2f1 (E2F transcription factor 1) | DRSC29572 | 2.79e5 | 4.51e5 | 5.07e5 | 5.07e5 | inactive |

Just “firefly reporter light, replicate 2”, for 7 of the entries above:
Nsf2 (N-ethylmaleimide-sensitive factor 2) [DRSC27428] = 2.49e5
CG3502 + CG9863 [DRSC04578] = 2.01e5
CG15673 [DRSC04263] = 2.27e5
CstF50 (Cleavage stimulation factor 50 kD subunit) [DRSC15434] = 59229
RpL13A (Ribosomal protein L13A) [DRSC12265] = 45129
RpL13A (Ribosomal protein L13A) [DRSC27297] = 2.43e5
ytr (yantar) [DRSC04306] = 6.74e5
